Assay [1] deals with RVFV glycoprotein Gn head domain (154–469 aa) (Rift Valley fever virus) (UniProt P21401). Kind of assay: BLI; […]; 300 s association, 300 s dissociation; […], global 1:1 model; Octet RED96; both purified. For orientation: Biolayer interferometry detects binding as a change in optical thickness at a sensor tip.
The target is the same in assay [2]. Briefly: BLI; both purified.

The chains behind the UniProt entries cited, without tags or fusion partners. Residues count along the entry.
UniProt P21401, residues 154-469: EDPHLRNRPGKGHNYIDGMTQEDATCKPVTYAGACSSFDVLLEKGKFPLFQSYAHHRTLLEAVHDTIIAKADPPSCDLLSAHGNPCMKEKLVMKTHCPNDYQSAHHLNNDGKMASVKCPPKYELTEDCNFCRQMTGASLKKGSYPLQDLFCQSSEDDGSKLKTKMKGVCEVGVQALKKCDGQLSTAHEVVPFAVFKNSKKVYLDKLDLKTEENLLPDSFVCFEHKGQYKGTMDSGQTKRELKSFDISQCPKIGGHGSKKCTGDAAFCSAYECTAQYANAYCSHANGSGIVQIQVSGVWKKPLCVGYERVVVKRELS
LRP1 cluster II (CL II, 786–1165 aa) (Q07954, residues 786-1165): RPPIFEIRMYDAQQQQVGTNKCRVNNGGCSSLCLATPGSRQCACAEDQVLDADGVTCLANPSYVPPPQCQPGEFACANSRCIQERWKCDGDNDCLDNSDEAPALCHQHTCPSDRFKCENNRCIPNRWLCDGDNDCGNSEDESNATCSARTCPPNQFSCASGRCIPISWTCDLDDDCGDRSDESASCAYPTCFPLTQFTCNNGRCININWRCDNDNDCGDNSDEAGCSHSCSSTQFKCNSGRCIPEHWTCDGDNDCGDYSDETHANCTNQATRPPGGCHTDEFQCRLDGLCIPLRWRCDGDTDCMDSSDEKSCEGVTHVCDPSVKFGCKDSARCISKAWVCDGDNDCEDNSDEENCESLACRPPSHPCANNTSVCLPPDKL
LRP1 cluster IV (CL IV, 3332–3779 aa) (Q07954, residues 3332-3779): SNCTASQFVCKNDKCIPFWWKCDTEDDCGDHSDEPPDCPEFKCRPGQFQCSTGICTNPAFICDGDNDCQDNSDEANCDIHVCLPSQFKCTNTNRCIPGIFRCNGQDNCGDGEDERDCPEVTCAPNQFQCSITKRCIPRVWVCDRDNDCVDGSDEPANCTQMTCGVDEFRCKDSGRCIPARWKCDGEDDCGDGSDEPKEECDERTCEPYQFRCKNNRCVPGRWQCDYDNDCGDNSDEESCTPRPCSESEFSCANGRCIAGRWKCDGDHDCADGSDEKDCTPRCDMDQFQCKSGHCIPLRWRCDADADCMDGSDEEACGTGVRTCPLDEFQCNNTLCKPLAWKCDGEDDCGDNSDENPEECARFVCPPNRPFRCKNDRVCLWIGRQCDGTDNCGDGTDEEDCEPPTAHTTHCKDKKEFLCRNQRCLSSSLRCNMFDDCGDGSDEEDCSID
LRP1 CL IV-C, repeats A29–A31 (3652–3778 aa) (Q07954, residues 3652-3778): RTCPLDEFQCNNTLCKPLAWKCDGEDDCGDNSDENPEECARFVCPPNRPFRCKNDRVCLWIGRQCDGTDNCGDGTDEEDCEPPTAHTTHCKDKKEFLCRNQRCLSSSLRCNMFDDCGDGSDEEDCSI

Consider three substances from paper PMC12839305.

Results are given in words; binding and its absence hold for the method and conditions named.

Regarding “LRP1 CL IV-C, repeats A29–A31 (3652–3778 aa) (from UniProt Q07954 3652-3778) (domain or fragment)”, the binding entry in assay [1] was “no binding”.

On to “LRP1 cluster II (CL II, 786–1165 aa) (from UniProt Q07954 786-1165) (domain or fragment)”, for which the binding entry in assay [2] was “no binding (condition: with 4 mM EGTA)”.

As to “LRP1 cluster IV (CL IV, 3332–3779 aa) (from UniProt Q07954 3332-3779) (domain or fragment)”, the binding result in assay [2] is on record as “no binding (condition: with 4 mM EGTA)”.
